No constants are given. Whether binding was seen depends on the method and setting. Binding seen in cells or lysates may run through a third protein. Some results given as binding are weak or reduced against the parent protein; the word gives no strength. For some of these results: Where a sequence is shown, tags or fusion partners need not be part of it.
What was measured:
[1] = target: T1, cell division cycle 6 (CDC6) tagged with HA (human) (UniProt Q99741); assay: co-IP; HEK293T transfected with CDC6-HA and TMOD3-Flag for 48 h; western-IP lysis buffer; anti-HA and anti-Flag magnetic beads overnight; western blotting
T1 sequence: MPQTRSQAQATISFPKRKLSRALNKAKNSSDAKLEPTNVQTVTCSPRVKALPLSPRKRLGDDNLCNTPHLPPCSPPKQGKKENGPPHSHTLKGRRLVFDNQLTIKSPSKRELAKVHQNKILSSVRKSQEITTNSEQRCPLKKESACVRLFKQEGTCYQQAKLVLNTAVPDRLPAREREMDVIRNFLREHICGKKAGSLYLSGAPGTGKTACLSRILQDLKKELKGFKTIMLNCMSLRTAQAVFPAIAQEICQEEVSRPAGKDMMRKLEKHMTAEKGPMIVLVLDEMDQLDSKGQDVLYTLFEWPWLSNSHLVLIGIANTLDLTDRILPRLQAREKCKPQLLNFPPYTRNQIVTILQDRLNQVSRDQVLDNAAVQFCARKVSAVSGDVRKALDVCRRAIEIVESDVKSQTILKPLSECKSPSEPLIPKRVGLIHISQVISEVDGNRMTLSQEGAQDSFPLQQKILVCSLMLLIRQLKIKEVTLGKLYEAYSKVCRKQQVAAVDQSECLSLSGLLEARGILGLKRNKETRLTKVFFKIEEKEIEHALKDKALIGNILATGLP

[2] = target: T2, CDC6, endogenous in A549 cells (human (endogenous in A549)) (UniProt Q99741); assay: co-IP; endogenous proteins in A549 lysate; 4 ug anti-CDC6 antibody or control IgG overnight, rProteinA/G beads 4 h; western blotting; also A549 cells treated with paclitaxel for 10 days (interaction increased)
T2 sequence: T1 sequence

[3] = target: T3, CDC6 in pBiFC-VN (Venus fragment fusion) (human) (UniProt Q99741); assay: split reporter; BiFC with Venus fragments: CDC6 in pBiFC-VN and Tmod3 in pBiFC-VC co-transfected in HEK293T; live-cell images after 48 h
T3 sequence: T1 sequence

[4] = target: T4, CDC6 of the IP experiment with Tmod1 (human) (UniProt Q99741); assay: co-IP; IP experiments of CDC6 and Tmod1 (Supplementary Fig. 4h); cells and constructs not told
T4 sequence: T1 sequence

B1: Tmod3 tagged with Flag (protein, UniProt Q9NYL9 1-352)
chain: MALPFRKDLEKYKDLDEDELLGNLSETELKQLETVLDDLDPENALLPAGFRQKNQTSKSTTGPFDREHLLSYLEKEALEHKDREDYVPYTGEKKGKIFIPKQKPVQTFTEEKVSLDPELEEALTSASDTELCDLAAILGMHNLITNTKFCNIMGSSNGVDQEHFSNVVKGEKILPVFDEPPNPTNVEESLKRTKENDAHLVEVNLNNIKNIPIPTLKDFAKALETNTHVKCFSLAATRSNDPVATAFAEMLKVNKTLKSLNVESNFITGVGILALIDALRDNETLAELKIDNQRQQLGTAVELEMAKMLEENTNILKFGYQFTQQGPRTRAANAITKNNDLVRKRRVEGDHQ
- binding [1]: binds

B2: Tmod3, endogenous in A549 cells (protein, UniProt Q9NYL9 1-352)
chain: B1 chain
- binding [2]: binds

B3: Tmod3 in pBiFC-VC (Venus fragment fusion) (protein, UniProt Q9NYL9 1-352)
chain: B1 chain
- binding [3]: binds

B4: Tmod1 (protein, UniProt P28289 1-359)
chain: MSYRRELEKYRDLDEDEILGALTEEELRTLENELDELDPDNALLPAGLRQKDQTTKAPTGPFKREELLDHLEKQAKEFKDREDLVPYTGEKRGKVWVPKQKPLDPVLESVTLEPELEEALANASDAELCDIAAILGMHTLMSNQQYYQALSSSSIMNKEGLNSVIKPTQYKPVPDEEPNSTDVEETLERIKNNDPKLEEVNLNNIRNIPIPTLKAYAEALKENSYVKKFSIVGTRSNDPVAYALAEMLKENKVLKTLNVESNFISGAGILRLVEALPYNTSLVEMKIDNQSQPLGNKVEMEIVSMLEKNATLLKFGYHFTQQGPRLRASNAMMNNNDLVRKRRLADLTGPIIPKCRSGV
- binding [4]: binds
